Assay results taken from patent US7781423B2, “Compounds to promote regeneration of bone marrow” (priority 2007, dated 2010).
Some entries share one result that the patent states for a list of compounds.

Tested on: healthy mice
Assay: Toxicity in healthy mice
Type: in vivo
Details: by day 30; 1,000-1,500 μmole doses
Description: Accordingly, a well tolerated maximal dose for CCompound1 or CCompound3 in mice (weighing about 25 g) is […] which corresponds to a dose of 4.6 mg/kg. Therapeutically effective concentrations of CC compounds in humans will exert significant promoting effects on bone marrow regeneration without causing toxicity in other normal healthy tissues.

Q: For `CC[N+](C)(CC)CCOCc1ccc2sc3ccccc3c(=O)c2c1.[I-]` [CCcompound3], which death of animals is on record?
A: The death of animals was 20-40%.

Q: With `Cc1c(OCC(O)C[N+](C)(C)C)cc2c(=O)c3ccccc3sc2c1C.[Cl-]` (centres unmarked) [CCcompound1, [3-(3,4-Dimethyl-9-oxo-9H-thioxanthen-2-yloxy)-2-hydroxypropyl]trimethyl-ammonium chloride] as the compound, how does the death of animals read?
A: Its death of animals is 20-40%.
